Experimental data: PMC7862700
This is a selection; strong and weak results do not stand in their true shares. At the low end of the ranking the order means little.

Amino acid sequences for entries named in this document (tags omitted). A change or cut given only in a name is not applied to a line headed by its entry.
UniProt Q9Y603: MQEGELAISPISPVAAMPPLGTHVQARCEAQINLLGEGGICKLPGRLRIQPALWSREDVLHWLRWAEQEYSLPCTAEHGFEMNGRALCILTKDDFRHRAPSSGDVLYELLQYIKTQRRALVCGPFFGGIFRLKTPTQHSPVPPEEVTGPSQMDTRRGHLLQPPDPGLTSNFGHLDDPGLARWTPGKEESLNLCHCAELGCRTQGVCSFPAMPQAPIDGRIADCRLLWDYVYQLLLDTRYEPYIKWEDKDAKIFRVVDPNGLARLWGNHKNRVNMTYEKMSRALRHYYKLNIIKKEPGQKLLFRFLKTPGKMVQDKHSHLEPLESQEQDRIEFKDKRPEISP
UniProt P41212: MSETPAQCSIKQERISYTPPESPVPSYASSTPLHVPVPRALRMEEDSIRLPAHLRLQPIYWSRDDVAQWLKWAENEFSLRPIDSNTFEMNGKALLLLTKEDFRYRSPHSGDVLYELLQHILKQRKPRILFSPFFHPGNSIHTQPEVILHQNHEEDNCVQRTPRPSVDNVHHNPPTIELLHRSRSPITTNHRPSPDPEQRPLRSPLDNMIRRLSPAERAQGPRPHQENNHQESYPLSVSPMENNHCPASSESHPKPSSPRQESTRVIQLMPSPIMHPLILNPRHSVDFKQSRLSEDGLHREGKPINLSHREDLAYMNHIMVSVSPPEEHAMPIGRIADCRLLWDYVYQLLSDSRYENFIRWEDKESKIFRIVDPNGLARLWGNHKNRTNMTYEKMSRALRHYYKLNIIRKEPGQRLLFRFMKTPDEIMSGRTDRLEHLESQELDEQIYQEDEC

Tests used:
Experiment in all cases: DAPPL (digital affinity profiling via proximity ligation, sequencing)
Conditions in all cases: 10 mM Tris-HCl pH 7.5, 50 mM NaCl, 1 mM DTT, 4% glycerol, room temperature, 30 min; GST-TFs on glutathione beads, 16-mer random dsDNA library, 0.1% …; high values mean tight binding; double strand, one strand shown; scale: fold enrichment (6-mer frequency, TF over GST control)
ELF3 = biological target: T1, ELF3 (UniProt P78545)
T1 sequence: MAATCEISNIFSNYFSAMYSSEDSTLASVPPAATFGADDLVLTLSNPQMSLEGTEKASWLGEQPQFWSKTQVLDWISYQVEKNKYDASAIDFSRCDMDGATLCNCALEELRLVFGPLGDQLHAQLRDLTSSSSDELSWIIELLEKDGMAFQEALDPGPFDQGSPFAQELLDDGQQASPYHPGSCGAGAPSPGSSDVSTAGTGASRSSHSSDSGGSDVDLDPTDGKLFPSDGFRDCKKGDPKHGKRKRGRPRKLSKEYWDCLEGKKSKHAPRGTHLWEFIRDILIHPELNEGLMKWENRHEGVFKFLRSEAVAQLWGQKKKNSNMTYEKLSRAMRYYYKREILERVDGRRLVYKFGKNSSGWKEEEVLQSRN

ETV7 = ETV7 (UniProt Q9Y603)
ETV6 = ETV6 (UniProt P41212)

Row | Sequence | binding signal (ELF3) | binding signal (ETV7) | binding signal (ETV6)
1 | GGTGCA | 0.874 | 0.994 | 0.792
2 | CGGTGC | 0.559 | 0.691 | 0.723
3 | CGGCCG | 0.936 | 0.76 | 0.807
4 | ACAGGT | 0.797 | 0.769 | 0.786
5 | GGCGAA | 0.667 | 0.827 | 0.721
6 | CAGCAG | 0.913 | 0.851 | 0.807
7 | GCGTAG | 0.822 | 0.746 | 0.845
8 | CGGAGT | 0.287 | 0.387 | 0.319
9 | GGACGT | 0.497 | 0.519 | 0.607
10 | GCGCGA | 0.697 | 0.831 | 0.666
11 | GTGATC | 0.846 | 0.793 | 0.793
12 | CGTGAT | 0.475 | 0.473 | 0.444
13 | CACGTC | 0.89 | 0.834 | 0.867
14 | TGTAGG | 0.729 | 0.805 | 0.815
15 | AAGACG | 0.786 | 0.826 | 0.743
16 | TCAGCG | 0.986 | 0.825 | 0.715
17 | GGTAGA | 0.717 | 0.667 | 0.589
18 | GGAGAA | 0.302 | 0.397 | 0.316

Shown in markdown: part of the list above.

| Row | Sequence | binding signal (ELF3) | binding signal (ETV7) | binding signal (ETV6) |
| --- | --- | --- | --- | --- |
| 14 | TGTAGG | 0.729 | 0.805 | 0.815 |
| 15 | AAGACG | 0.786 | 0.826 | 0.743 |

More records.

Row | Sequence | binding signal (ELF3) | binding signal (ETV7) | binding signal (ETV6)
19 | ACGTGC | 0.635 | 0.691 | 0.648
20 | GTGGGA | 0.551 | 0.567 | 0.624
21 | GGTGCG | 0.595 | 0.66 | 0.613
22 | TTCGGA | 0.794 | 0.722 | 0.738
23 | ACGGTC | 0.679 | 0.876 | 0.731
24 | CGAGAC | 0.592 | 0.638 | 0.579
25 | ACGTGT | 0.623 | 0.64 | 0.609
26 | GGGTTG | 0.805 | 0.875 | 0.788
27 | AAGAGA | 0.912 | 0.882 | 0.83
28 | GACTAA | 0.885 | 0.931 | 0.965
29 | ATCGGC | 0.687 | 0.664 | 0.635
30 | AAGGCG | 0.681 | 0.67 | 0.638
31 | GACTAG | 0.821 | 0.84 | 0.667
32 | AGCGGA | 0.825 | 0.796 | 0.902
33 | TGTGTA | 0.906 | 0.887 | 0.802
34 | GTCGTC | 0.831 | 0.764 | 0.825
35 | GTAGAC | 0.832 | 0.775 | 0.733
36 | GGGTCA | 0.745 | 0.734 | 0.73
